Data reported in PMC12637224.
No constants are given. Whether binding was seen depends on the method and setting. For some of these results: Binding seen in cells or lysates may run through a third protein. Some results given as binding are weak or reduced against the parent protein; the word gives no strength. For some of these results: Sequences can lack the tags named with a protein. Values belong to the substance of their own block, whether it stands above or below them.

Amino acid sequences for entries named in this document (tags omitted). A change or cut given only in a name is not applied to a line headed by its entry. Chains listed by the source or under a name are the forms on record and can include a tag or linker.
UniProt P20701: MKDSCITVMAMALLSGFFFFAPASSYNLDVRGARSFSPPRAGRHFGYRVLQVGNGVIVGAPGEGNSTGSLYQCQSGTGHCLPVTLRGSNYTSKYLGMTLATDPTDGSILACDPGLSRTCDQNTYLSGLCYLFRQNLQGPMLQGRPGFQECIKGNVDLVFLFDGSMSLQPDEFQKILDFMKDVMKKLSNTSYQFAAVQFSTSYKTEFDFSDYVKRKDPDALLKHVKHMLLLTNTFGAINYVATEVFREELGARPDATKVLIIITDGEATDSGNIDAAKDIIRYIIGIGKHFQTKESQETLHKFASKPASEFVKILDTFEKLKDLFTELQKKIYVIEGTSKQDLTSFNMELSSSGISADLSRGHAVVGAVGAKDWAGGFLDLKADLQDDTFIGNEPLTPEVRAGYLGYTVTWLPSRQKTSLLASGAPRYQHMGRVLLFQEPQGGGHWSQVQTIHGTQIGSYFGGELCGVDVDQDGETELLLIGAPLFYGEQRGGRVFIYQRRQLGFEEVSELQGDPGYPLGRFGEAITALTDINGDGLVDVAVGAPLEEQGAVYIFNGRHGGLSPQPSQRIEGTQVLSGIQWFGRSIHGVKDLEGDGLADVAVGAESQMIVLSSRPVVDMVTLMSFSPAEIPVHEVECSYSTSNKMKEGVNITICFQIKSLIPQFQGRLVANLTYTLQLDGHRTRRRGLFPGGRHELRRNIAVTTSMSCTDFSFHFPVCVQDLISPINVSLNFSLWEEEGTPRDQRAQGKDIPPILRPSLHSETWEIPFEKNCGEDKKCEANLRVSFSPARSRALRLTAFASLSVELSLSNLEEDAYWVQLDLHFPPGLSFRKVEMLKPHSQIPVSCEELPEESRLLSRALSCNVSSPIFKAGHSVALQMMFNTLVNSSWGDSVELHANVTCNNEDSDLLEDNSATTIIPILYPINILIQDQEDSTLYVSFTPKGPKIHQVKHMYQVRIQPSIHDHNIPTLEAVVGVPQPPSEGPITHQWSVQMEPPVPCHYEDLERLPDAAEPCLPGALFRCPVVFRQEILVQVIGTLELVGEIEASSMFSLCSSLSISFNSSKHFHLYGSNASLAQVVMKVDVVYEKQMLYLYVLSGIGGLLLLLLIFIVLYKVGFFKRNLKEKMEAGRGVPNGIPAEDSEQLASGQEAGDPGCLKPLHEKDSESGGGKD
GST-β2-CT (GST-fused human integrin β2 cytoplasmic tail) (P05107, form named): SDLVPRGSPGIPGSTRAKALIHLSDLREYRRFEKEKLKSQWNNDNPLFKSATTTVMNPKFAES
GST-β2-KQDS (GST-fused human β2 cytoplasmic tail with NND replaced with KQDS) (P05107, form named): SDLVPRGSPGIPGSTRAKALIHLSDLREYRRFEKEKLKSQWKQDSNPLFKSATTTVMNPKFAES
UniProt P26011: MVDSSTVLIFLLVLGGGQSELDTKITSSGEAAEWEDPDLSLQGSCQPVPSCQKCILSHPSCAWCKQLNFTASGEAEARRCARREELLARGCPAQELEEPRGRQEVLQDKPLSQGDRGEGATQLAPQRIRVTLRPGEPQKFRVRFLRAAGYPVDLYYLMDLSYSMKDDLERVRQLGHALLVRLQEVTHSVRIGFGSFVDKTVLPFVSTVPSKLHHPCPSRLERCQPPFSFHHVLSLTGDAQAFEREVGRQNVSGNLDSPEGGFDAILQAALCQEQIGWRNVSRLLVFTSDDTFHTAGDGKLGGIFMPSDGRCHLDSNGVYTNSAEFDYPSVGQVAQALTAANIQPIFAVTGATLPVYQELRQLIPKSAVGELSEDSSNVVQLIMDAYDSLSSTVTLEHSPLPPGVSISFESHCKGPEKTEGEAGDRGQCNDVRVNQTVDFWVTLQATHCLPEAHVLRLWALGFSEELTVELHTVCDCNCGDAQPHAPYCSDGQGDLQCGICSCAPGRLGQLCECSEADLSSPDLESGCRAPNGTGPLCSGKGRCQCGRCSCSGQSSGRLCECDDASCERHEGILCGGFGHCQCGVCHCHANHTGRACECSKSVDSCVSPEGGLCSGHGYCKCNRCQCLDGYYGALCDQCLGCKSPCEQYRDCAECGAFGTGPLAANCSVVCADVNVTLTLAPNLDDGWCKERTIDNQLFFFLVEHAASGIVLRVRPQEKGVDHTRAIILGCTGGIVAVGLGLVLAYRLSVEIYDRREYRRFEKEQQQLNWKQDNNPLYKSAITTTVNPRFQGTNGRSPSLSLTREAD
UniProt P43406: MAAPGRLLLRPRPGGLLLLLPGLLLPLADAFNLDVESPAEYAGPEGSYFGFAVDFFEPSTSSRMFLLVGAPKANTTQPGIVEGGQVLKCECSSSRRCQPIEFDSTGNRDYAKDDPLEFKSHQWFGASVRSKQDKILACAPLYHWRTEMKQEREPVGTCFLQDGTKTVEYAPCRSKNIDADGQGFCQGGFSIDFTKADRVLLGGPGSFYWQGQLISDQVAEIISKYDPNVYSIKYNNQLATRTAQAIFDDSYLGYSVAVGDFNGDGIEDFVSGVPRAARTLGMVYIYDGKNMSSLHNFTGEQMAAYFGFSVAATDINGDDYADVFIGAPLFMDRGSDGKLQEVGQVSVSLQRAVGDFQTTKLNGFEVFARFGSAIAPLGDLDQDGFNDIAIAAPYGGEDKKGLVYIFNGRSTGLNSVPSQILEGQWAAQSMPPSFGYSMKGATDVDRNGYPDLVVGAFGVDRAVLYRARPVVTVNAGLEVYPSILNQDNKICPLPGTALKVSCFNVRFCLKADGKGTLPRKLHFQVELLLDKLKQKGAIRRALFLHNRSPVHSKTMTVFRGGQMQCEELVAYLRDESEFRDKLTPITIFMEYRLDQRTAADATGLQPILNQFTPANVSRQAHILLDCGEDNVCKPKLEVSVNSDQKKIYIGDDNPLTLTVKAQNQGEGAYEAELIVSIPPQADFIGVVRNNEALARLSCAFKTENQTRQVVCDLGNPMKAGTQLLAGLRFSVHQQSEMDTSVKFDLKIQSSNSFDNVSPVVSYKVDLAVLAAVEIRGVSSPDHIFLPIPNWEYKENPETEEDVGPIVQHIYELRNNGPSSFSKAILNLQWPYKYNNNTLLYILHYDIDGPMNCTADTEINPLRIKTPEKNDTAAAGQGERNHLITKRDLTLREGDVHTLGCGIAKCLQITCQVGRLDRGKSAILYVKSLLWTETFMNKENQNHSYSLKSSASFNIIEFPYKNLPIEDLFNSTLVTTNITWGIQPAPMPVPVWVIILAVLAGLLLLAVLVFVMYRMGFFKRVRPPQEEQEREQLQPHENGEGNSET
UniProt O54890: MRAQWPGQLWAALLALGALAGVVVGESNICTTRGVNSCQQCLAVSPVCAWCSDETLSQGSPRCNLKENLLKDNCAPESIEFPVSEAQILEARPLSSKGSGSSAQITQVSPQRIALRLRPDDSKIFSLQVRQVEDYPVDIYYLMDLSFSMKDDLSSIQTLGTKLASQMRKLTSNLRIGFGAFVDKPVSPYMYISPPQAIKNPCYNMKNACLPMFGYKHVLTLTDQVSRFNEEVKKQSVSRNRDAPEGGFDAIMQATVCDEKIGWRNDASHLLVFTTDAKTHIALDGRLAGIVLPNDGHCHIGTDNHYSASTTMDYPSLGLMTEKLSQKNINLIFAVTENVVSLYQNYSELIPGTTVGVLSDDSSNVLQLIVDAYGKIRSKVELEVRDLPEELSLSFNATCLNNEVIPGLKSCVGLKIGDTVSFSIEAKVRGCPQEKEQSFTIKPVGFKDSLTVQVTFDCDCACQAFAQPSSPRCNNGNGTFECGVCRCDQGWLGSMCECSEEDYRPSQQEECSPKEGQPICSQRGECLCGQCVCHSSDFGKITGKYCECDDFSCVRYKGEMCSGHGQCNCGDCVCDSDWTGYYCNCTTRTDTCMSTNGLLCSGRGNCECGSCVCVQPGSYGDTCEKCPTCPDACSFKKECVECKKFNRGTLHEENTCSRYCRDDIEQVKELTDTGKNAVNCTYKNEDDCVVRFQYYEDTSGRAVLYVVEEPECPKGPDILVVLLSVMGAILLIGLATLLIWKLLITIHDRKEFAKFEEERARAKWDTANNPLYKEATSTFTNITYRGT
GST-β3-CT (GST-fused human integrin β3 cytoplasmic tail) (P05106, form named): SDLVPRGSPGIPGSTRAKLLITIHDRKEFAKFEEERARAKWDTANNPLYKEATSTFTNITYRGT
UniProt P26039: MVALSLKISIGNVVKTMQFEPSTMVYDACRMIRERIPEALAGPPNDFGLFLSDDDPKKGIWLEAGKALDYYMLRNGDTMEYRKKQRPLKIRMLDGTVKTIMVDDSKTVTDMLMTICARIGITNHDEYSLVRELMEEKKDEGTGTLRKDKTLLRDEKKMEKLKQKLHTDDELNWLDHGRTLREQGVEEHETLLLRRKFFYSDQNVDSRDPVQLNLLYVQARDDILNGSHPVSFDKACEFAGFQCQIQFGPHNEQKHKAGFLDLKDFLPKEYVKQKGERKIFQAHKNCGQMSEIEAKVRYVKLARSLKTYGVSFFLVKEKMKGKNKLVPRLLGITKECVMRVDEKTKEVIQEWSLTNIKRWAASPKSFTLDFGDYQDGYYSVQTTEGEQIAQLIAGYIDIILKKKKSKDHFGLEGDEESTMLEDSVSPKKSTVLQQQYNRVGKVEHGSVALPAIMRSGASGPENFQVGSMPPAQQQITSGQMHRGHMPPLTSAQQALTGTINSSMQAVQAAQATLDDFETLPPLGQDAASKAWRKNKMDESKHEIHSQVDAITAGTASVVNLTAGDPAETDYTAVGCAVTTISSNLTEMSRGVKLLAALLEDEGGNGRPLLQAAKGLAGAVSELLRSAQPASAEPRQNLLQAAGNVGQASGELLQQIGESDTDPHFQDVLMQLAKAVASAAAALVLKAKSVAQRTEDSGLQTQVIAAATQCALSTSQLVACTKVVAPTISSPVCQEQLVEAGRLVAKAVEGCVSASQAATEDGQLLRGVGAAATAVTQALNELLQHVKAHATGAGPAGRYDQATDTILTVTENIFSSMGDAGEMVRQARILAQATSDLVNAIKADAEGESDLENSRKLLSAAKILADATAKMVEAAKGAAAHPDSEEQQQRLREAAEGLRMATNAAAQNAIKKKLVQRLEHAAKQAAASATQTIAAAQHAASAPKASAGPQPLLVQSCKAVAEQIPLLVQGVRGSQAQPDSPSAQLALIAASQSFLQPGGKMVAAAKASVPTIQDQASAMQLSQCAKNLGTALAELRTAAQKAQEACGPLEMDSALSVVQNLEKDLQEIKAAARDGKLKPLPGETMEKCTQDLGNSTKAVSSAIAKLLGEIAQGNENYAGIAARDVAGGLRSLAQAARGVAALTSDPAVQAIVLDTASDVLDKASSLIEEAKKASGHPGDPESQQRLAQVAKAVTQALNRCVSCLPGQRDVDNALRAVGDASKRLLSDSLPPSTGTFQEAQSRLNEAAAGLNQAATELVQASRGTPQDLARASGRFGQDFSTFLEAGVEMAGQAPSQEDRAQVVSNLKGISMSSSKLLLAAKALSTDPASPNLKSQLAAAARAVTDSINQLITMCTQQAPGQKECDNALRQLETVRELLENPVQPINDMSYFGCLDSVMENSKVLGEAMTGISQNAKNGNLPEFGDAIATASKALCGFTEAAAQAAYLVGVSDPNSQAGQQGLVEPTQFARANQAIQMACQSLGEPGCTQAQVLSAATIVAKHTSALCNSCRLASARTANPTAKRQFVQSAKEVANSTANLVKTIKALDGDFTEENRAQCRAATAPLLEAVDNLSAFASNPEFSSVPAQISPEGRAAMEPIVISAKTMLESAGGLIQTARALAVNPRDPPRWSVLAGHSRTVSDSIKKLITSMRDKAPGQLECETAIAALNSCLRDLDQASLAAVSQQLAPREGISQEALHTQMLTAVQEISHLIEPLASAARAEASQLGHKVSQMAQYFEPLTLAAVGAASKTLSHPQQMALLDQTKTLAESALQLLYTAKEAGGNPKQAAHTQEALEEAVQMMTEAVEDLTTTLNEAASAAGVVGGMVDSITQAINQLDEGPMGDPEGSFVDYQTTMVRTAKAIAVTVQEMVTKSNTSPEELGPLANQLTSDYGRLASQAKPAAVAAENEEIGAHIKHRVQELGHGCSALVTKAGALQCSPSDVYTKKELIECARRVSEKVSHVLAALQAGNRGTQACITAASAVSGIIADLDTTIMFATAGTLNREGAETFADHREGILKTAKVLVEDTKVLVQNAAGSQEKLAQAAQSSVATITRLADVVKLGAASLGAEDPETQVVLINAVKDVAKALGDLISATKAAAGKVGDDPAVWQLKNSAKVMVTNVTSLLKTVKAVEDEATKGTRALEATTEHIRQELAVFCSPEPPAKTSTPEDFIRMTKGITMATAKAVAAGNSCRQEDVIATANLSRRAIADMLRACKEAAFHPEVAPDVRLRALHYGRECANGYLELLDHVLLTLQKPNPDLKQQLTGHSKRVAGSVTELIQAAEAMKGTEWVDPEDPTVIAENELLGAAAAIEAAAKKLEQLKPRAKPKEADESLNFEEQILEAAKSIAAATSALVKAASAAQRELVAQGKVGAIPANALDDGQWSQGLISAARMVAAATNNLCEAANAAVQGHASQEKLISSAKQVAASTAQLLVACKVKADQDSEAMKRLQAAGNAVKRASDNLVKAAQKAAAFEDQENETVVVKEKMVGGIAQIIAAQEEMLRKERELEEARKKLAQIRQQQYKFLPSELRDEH

What was measured:
[1] = target: intact LFA1 (αL/β2) expressed in BAF/LFA1 cells (human) (UniProt P20701+P05107); experiment: single-molecule particle tracking by total internal reflection microscopy in live cells; BAF/LFA1 cells expressing HT-talin1 and intact, chimeric or mutant LFA1, on hICAM1-coated dishes, with PMA (without PMA for αL-ΔGFFKR cells); binding frequency and binding time from trajectories >0.2 s
[2] = target: αL/β2-KQDS (NND of the β2 WN linker replaced with KQDS of β7) (human) (UniProt P20701+P05107); experiment: as above
αL/β2-N749A (human) = αL/β2-N749A (human) (UniProt P20701+P05107); experiment: as above
[3] = target: LFA1 (αL/β2 integrin), endogenous on mouse primary T cells (mouse (endogenous in mouse T cells)) (UniProt P24063+P11835); experiment: single-molecule particle tracking by total internal reflection microscopy in live cells; primary T cells from HT-talin1 knock-in mice (naive; activated with retinoic acid; Th2-skewed), HT-talin1 labelled with HT SaraFluor 650T Ligand, cells on dishes coated with 10 μg/ml ICAM1, MAdCAM1 or PECAM1 with 100 ng/ml PMA; poly-L-lysine as ligand-free control; binding frequency, binding time and koff from trajectories >0.2 s
[4] = target: α4/β7 integrin, endogenous on mouse primary T cells (mouse (endogenous in mouse T cells)) (UniProt Q00651+P26011); experiment: as above
[5] = target: αV/β3 integrin, endogenous on mouse primary T cells (mouse (endogenous in mouse T cells)) (UniProt P43406+O54890); experiment: as above
[6] = target: GST-β2-CT (GST-fused human integrin β2 cytoplasmic tail) (human) (UniProt P05107); experiment: pull-down; GST-integrin-CT preimmobilized on Glutathione Sepharose beads, mixed with lysates of 293T cells expressing myc-tagged talin1 FERM, 1 h at 4 °C; washed with 30 mM Tris–HCl, 150 mM NaCl, 1 mM EDTA, 0.15% Triton X-100, pH 7.5; Western blotting; only the target purified
[7] = target: GST-β2-KQDS (GST-fused human β2 cytoplasmic tail with NND replaced with KQDS) (human) (UniProt P05107); experiment: as above
[8] = target: GST-β3-CT (GST-fused human integrin β3 cytoplasmic tail) (human) (UniProt P05106); experiment: as above
[9] = target: T1, GST-β7-CT (GST-fused human integrin β7 cytoplasmic tail) (human) (UniProt P26010); experiment: as above
T1 sequence: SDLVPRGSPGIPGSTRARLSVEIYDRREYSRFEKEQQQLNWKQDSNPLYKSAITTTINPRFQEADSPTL

binding [1]: binds
binding [2]: binds
binding (αL/β2-N749A (human)): binds
Substance: HaloTag-fused talin1 (HT-talin1) expressed in BAF/LFA1 cells (from UniProt P26039 1-2541)

binding [3]: binds
binding [4]: binds
binding [5]: binds
Substance: HaloTag-fused talin1 (HT-talin1), endogenous knock-in in mouse primary T cells (from UniProt P26039 1-2541)

binding [6]: binds
binding [7]: binds
binding [8]: binds
binding [9]: binds
Substance: myc-tagged talin1 FERM domain (from UniProt P26039 86-403) (domain or fragment)
